The assay has as its target T1, Sortilin (rat (endogenous in DRG)) (UniProt O54861).
T1 sequence: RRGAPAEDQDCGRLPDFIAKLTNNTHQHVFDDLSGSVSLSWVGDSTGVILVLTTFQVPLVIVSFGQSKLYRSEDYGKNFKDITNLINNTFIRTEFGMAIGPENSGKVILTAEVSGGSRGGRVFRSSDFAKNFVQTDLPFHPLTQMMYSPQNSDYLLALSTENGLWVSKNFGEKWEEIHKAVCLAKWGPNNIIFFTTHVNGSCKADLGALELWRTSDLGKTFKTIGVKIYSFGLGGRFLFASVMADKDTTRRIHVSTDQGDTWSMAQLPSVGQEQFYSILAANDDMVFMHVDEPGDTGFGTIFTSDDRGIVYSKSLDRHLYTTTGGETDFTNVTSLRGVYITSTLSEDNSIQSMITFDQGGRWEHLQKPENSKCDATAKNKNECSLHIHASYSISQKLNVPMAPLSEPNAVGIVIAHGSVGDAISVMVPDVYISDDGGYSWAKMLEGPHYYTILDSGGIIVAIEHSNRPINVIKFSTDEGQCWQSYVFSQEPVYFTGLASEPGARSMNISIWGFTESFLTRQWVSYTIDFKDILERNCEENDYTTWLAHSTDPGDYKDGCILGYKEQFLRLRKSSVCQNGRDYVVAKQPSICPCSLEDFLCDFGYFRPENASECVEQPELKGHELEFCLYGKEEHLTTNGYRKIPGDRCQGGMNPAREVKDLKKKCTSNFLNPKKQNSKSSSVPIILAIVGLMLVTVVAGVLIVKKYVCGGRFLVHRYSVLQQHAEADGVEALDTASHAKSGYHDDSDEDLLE
The assay can be described thus: co-IP; DRG lysates of prediabetic (high-energy diet) and control rats; Pierce Classic IP Kit; supernatants incubated with the Sortilin antibody at 4 °C overnight; immune complex analysed by western blot for TREK1 and TREK2.

By UniProt entry, the sequences of proteins in these tests, tags left out.
UniProt Q920B6: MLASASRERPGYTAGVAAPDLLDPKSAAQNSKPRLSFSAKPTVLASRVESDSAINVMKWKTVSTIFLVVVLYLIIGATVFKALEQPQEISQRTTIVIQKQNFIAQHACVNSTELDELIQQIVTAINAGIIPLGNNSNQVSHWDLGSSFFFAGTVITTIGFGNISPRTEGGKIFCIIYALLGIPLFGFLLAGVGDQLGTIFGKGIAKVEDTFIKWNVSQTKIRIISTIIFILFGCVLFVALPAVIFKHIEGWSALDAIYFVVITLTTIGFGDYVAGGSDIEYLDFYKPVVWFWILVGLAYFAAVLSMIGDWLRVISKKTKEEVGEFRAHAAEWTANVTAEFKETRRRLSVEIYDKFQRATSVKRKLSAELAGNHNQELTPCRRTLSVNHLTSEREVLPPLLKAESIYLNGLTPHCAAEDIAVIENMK
UniProt Q9JIS4: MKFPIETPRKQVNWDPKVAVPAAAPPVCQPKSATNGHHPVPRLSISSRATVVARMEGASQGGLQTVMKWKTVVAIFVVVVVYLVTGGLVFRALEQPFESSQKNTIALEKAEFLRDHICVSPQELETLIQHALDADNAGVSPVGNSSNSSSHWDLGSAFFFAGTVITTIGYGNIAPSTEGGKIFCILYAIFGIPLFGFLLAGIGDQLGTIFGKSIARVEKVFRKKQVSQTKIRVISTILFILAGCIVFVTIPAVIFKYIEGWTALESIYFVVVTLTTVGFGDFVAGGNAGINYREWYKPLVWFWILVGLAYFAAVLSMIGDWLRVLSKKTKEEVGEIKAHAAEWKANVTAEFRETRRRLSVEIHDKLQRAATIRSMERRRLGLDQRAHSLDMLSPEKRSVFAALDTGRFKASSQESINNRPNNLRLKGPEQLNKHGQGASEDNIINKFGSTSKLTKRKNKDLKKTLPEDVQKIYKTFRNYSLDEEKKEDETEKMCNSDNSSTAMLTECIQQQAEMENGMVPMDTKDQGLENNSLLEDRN

No constants are given. Whether binding was seen depends on the method and setting. In cells and extracts the contact can be indirect. Some results given as binding are weak or reduced against the parent protein; the word gives no strength.

With “TREK1 (K2P2.1) channel (from UniProt Q920B6 1-426)”, the binding result was “binds”. For “TREK2 (K2P10.1) channel (from UniProt Q9JIS4 1-538)”, the binding result was “binds”.

(Values after article PMC11187941.)
